This test concerns NorA overexpressing strain NCTC 13616. As to the kind of experiment: Reserpine growth (efflux inhibition) assay. The settings on record: 0.5x MIC with vs without reserpine.

Molecules are shown by their SMILES.

`O=C(O)c1cn(C2CC2)c2cc(N3CCNCC3)c(F)cc2c1=O` [Ciprofloxacin, ciprofloxacin, reference compound]: the “efflux liability in reserpine assay” value is given as “CIP is a substrate of NorA”.
